The values below come from PMC4227867, “Analysis of Nidogen-1/Laminin γ1 Interaction by Cross-Linking, Mass Spectrometry, and Computational Modeling Reveals Multiple Binding Modes” (PLoS ONE, 2014).

No constants are given. Whether binding was seen depends on the method and setting. Binding calls can cover weak binding; strength is not graded here.

Test [1] concerns the target T1, full-length nidogen-1 (murine, UniProt P10493 29-1245).
T1 construct: For photo-cross-linking the protein was made in Leu- and Met-depleted medium with photo-Met and photo-Leu; 13-25% of all leucines and methionines were partially replaced; also called entactin; source: HEK 293 EBNA cells, purified (Nickel-NTA Superflow); not shown: (His)6, N-terminal, kept
T1 sequence (looked up): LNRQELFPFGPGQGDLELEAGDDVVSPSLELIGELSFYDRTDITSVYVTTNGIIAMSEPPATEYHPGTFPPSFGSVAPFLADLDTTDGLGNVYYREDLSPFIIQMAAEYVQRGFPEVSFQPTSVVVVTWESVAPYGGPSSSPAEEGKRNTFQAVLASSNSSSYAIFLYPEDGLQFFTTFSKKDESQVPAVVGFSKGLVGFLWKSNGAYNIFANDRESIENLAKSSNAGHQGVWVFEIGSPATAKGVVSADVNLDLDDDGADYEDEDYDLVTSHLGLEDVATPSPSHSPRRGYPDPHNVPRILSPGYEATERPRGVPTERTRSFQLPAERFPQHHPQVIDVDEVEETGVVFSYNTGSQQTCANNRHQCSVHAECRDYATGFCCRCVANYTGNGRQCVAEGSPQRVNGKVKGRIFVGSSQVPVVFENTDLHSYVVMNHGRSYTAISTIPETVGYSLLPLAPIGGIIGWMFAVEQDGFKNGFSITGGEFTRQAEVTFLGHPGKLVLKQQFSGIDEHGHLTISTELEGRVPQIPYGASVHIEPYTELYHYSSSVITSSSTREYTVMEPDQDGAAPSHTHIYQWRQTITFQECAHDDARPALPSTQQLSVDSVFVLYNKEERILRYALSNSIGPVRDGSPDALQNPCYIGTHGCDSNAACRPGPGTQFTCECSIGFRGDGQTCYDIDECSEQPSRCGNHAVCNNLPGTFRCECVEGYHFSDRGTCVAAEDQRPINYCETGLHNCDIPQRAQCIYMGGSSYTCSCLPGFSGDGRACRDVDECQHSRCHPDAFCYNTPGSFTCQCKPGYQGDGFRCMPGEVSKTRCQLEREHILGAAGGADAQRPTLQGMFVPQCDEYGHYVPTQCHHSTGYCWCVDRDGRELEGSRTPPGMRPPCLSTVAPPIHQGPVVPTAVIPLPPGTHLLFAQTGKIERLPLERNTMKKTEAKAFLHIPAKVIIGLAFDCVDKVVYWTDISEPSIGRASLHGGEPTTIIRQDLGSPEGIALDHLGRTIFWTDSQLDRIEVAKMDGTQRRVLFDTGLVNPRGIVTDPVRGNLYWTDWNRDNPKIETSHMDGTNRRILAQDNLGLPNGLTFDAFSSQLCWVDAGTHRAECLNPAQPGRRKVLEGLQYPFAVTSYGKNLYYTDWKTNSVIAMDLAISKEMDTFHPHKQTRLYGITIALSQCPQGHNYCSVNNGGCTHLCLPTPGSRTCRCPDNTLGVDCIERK
Briefly: SPR; nidogen-1 immobilised by amine coupling on a CM5 chip; laminin variants as mobile analytes; single-cycle kinetics, 25°C, 20 mM HEPES, 100 mM NaCl, 0.05% Tween 20, pH 7.5; 1:1 binding model; apparent Kd; both purified.

Test [2] has as its target T1, full-length nidogen-1. Briefly: cross-linking; BS2G in 200-fold molar excess, 1 to 10 µM protein in 20 mM HEPES, 100 mM NaCl, pH 7.5, room temperature, 30 min; SDS-PAGE, digestion, nano-HPLC/nano-ESI-LTQ-Orbitrap-MS/MS; both purified.

Consider “laminin γ1 LEb2–4 N836D (murine) (domain or fragment)”, for which the binding result in the test with full-length nidogen-1 [1] and with full-length nidogen-1 [2] was “binds” each time.
